In one assay the target is T1, ASS1 in CRC cells (UniProt P00966).
T1 sequence: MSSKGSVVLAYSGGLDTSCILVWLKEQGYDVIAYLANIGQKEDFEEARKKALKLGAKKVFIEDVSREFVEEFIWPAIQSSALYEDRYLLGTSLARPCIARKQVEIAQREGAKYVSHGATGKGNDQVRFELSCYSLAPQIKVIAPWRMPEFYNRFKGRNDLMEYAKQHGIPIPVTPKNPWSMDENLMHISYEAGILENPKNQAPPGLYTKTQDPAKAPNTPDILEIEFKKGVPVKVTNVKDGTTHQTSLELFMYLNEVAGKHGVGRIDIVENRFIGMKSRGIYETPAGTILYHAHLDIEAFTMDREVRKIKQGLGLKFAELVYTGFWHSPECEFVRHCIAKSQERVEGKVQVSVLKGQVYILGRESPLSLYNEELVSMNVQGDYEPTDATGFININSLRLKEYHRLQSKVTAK
In words: affinity purification with mass spectrometry; LC-MS/MS of ASS1-bound proteins (ASS1 IP/MS).

Chains of the proteins cited; added tags and fusions are not shown.
UniProt Q9UPN9: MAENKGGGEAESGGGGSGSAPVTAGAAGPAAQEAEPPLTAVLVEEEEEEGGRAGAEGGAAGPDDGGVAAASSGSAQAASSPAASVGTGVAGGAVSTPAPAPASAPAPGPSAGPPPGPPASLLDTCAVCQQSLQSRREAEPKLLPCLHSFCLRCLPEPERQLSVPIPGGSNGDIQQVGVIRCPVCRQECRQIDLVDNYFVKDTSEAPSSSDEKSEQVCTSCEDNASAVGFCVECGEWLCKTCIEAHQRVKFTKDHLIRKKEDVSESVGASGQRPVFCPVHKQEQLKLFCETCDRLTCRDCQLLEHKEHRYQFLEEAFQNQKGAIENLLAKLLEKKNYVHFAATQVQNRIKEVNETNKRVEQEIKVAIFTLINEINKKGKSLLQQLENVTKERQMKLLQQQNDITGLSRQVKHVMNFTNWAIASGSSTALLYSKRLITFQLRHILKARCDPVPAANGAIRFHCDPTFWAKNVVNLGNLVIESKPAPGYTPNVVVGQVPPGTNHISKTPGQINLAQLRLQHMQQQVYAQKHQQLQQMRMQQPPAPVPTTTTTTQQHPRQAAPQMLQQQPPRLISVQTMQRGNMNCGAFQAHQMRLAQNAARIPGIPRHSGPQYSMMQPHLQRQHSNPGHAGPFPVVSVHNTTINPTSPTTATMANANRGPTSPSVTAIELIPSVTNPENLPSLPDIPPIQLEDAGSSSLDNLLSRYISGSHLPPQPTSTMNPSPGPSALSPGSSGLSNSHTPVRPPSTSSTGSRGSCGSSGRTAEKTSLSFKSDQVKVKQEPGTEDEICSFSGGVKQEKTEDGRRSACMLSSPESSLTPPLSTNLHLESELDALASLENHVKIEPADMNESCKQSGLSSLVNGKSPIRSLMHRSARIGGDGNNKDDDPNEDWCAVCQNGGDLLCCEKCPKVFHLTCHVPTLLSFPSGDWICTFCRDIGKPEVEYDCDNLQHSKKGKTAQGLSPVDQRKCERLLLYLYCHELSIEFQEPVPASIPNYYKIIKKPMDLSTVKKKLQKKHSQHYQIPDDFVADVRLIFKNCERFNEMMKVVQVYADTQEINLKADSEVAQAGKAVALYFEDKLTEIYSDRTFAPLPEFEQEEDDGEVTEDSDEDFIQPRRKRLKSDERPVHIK

For assay [1], the target named is T2, ZFPL1 immunoprecipitated for mass spectrometry (human) (UniProt O95159).
T2 sequence: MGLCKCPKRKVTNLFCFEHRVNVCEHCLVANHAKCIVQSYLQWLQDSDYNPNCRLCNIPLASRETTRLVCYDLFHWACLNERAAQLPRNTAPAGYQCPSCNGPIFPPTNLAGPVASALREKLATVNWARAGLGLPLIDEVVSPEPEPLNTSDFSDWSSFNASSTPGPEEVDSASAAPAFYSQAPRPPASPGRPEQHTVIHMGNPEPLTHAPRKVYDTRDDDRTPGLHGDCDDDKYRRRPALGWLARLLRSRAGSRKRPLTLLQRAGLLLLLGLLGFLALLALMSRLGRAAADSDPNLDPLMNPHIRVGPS
As to the kind of experiment: affinity purification with mass spectrometry; IP of ZFPL1 and negative control, SDS-PAGE band cut out for mass spectrometry (TripleTOF 5600); CRC cells by the results, HEK293T transfected by the methods.

No constants are given. Whether binding was seen depends on the method and setting. In cells and extracts the contact can be indirect. These calls come from enrichment with a bait or labelling near it, and not all partners need be listed.

For “TRIM33 (tripartite motif containing 33) in CRC cells (from UniProt Q9UPN9 1-1127)”, in the assay with ASS1 in CRC cells, the binding result is “binds”.

B1: ASS1 in CRC cells (protein, UniProt P00966 1-412)
chain: T1 sequence
Regarding B1, the binding entry in assay [1] was “binds”.

The values above are taken from article PMC12697865, “ZFPL1 Promotes Colorectal Cancer Progression by Stabilizing ASS1 to Drive the Urea Cycle and M2 Macrophage‐Mediated Metastatic Colonization” (Advanced Science, 2025).
